In the assay the target is T1, Chromobox 8 (human (endogenous in T24 and BIU-87)) (UniProt Q9HC52).
T1 sequence: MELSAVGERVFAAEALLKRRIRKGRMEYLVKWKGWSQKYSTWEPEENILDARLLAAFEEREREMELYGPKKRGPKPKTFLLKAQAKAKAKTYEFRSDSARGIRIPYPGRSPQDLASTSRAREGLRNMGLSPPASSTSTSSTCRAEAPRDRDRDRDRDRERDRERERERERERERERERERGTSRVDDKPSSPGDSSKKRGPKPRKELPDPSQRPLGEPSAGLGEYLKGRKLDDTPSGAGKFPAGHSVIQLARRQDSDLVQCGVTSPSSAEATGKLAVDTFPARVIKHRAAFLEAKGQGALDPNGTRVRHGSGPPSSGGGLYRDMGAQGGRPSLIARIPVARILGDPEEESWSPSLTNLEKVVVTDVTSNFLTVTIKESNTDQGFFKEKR
Description: co-IP; lysate of T24 cells; precipitated with anti-CBX8 antibody (IgG as negative control), 4 °C overnight, protein A agarose; Western blot for BCOR. In general terms: A western blot detects proteins with antibodies after separation by electrophoresis.

Chains of the proteins cited; added tags and fusions are not shown.
UniProt Q6W2J9: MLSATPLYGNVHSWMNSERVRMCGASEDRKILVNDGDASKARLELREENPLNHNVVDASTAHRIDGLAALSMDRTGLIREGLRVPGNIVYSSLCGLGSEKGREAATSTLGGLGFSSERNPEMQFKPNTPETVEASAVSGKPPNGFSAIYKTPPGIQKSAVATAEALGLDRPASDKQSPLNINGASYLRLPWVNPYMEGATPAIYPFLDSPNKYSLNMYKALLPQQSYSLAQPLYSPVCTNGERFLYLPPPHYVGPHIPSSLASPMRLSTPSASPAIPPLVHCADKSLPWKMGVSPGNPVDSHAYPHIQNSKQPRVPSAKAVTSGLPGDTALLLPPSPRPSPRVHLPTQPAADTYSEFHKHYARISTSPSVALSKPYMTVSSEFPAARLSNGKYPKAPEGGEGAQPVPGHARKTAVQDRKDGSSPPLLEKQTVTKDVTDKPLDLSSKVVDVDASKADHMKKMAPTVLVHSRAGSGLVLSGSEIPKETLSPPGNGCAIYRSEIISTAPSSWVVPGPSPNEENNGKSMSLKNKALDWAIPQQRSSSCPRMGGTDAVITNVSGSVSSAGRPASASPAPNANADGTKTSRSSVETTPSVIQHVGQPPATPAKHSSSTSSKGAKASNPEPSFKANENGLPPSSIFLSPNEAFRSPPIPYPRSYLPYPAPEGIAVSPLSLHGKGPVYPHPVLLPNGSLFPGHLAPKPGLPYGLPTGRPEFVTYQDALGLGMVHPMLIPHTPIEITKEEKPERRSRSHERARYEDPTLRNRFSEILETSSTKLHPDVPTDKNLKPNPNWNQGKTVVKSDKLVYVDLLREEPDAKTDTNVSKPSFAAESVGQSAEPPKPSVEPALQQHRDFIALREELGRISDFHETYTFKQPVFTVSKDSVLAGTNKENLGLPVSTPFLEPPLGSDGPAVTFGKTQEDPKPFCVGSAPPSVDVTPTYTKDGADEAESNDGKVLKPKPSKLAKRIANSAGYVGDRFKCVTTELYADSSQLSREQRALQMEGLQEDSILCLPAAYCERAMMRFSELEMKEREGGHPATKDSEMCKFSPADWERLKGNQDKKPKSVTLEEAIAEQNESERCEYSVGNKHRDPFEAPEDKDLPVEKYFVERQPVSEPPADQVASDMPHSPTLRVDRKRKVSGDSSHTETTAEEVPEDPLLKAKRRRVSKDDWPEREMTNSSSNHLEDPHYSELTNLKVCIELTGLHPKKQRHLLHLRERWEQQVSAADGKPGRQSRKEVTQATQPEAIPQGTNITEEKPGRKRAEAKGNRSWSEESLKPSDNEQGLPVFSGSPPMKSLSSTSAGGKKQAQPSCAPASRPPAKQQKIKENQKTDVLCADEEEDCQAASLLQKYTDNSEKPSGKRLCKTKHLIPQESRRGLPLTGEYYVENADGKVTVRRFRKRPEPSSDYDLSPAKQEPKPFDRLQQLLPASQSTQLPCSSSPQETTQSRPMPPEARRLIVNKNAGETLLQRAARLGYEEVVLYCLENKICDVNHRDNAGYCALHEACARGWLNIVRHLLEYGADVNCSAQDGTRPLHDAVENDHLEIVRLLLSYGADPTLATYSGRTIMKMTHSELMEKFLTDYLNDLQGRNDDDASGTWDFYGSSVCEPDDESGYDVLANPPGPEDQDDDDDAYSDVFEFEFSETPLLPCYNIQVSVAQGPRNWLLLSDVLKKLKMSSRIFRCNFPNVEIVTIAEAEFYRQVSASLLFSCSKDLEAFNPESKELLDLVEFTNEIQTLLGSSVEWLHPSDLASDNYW

Results are given in words; binding and its absence hold for the method and conditions named. In cells and extracts the contact can be indirect. Some binding calls cover weakened binding; strength is not graded here.

Regarding “BCL6 corepressor (from UniProt Q6W2J9 1-1755)”, the binding result was “binds”.

For the origin of these results see article PMC7972191.
